The values below come from PubChem BioAssay AID651582 (Sanford-Burnham Center for Chemical Genomics, 2012).

This is one part of the list. Some salts or complexes appear as unconnected parts, following the source record.

This test can be described thus: inhibitors of triacylglycerol accumulation, primary screen, cell-based, uHTS, fluorescence, H9c2 (AID 651582). The following applies: H9c2 cells, Nile Red lipid (TAG) fluorescence; DAPI nuclei count viability; at 12.5 µM; cells loaded with 200 µM oleic acid.
Turning to `O=[N+]([O-])c1cc([N+](=O)[O-])c(Nc2ccc(Cl)cc2)c([N+](=O)[O-])c1`, the DAPI activity (viability loss) is -17.9%.

As to `CCOc1ccc(C2=NCC(CBr)S2)cc1` (centres undefined), the DAPI activity (viability loss) was determined as 4.57%.

Regarding `CC(C)(C)C(=O)NC(Sc1ccccc1)C(Cl)(Cl)Cl` (centres undefined), the DAPI activity (viability loss) worked out at 3.42%.

Regarding `CC(C)c1ccc(OP(C)(=O)Nc2ccc(SC(F)(F)F)cc2)cc1` (centres undefined), the DAPI activity (viability loss) worked out at 2.17%.

`CCc1cc(O)c([N+](=O)[O-])c(C)c1[N+](=O)[O-]`: the DAPI activity (viability loss) is 5.79%.

Regarding `Cc1ccccc1CN(C)C(=O)COC(=O)C(O)(c1ccccc1)c1ccccc1`, the DAPI activity (viability loss) is -2.87%.

Regarding `C[C@@H]1C=CCP(=O)(Oc2ccccc2)O1` (some centres undefined), the DAPI activity (viability loss) is 2.94%.

Regarding `N#C/C(=C\c1ccc(N(CCBr)CCBr)cc1)C(N)=O`, the DAPI activity (viability loss) is -15.8%.

With `COC(=O)C1(C)COP(=O)(NCc2ccccc2)OC1` (centres undefined), the DAPI activity (viability loss) is -4.34%.

For the molecule `O=C(OC1CN2CCC1CC2)c1ccc([N+](=O)[O-])cc1` (centres undefined), the DAPI activity (viability loss) is -0.106%.

Consider `COc1ccc2c(c1O)-c1c(O)c(OC)cc3c1[C@H](C2)[N+](C)(C)CC3.O=[N+]([O-])c1cc([N+](=O)[O-])c([O-])c([N+](=O)[O-])c1[O-]`, for which the DAPI activity (viability loss) is 7.38%.

Regarding `CC(=O)Nc1ccc([As](=O)(O)O)c(O)c1`, the DAPI activity (viability loss) stood at 3.82%.

As for `CC(=O)Nc1ccc(Oc2c([N+](=O)[O-])cc([N+](=O)[O-])cc2[N+](=O)[O-])cc1`, the DAPI activity (viability loss) stood at 12.1%.

In the case of `O=P(Nc1nccs1)(c1ccccc1)c1ccccc1`, the DAPI activity (viability loss) is -7.91%.

For the molecule `CP(=O)(Nc1ccc(SC(F)(F)F)cc1)Oc1ccc(F)cc1` (centres undefined), the DAPI activity (viability loss) came out at 6.7%.

Take `c1nnnn1CCn1cnnn1`: the DAPI activity (viability loss) was 4.3%.

On to `CCOP(C)(=S)SCC(=O)NC(C)(CC)C(=O)O` (centres undefined), for which the DAPI activity (viability loss) is 1.66%.

Turning to `CP(=O)(Nc1ccc2c(c1)OCCO2)Oc1ccccc1` (centres undefined), the DAPI activity (viability loss) turned out to be 3.15%.

With `Cc1ccccc1NP(C)(=O)Nc1ccccc1C`, the DAPI activity (viability loss) was -2.59%.

For the molecule `COc1ccc(OP(C)(=O)Nc2cccc(Br)c2)cc1` (centres undefined), the DAPI activity (viability loss) was -13.6%.

Consider `COc1ccc(N)c([N+](=O)[O-])c1[N+](=O)[O-]`, for which the DAPI activity (viability loss) is -3.26%.

For `COc1ccc(NP(C)(=O)Oc2ccccc2OC)cc1` (centres undefined), the DAPI activity (viability loss) is -9.95%.

In the case of `O=P(Nc1nc2ccccc2s1)(c1ccccc1)c1ccccc1`, the DAPI activity (viability loss) was -5.85%.

On to `C[C@H]1OP(=O)(Oc2ccccc2)[C@H](O)[C@H](O)[C@H]1N=[N+]=[N-]` (some centres undefined), for which the DAPI activity (viability loss) was 2.77%.

Regarding `O=[As](O)(c1ccccc1)c1ccc(O)cc1`, the DAPI activity (viability loss) is -5.3%.

Take `O=[N+]([O-])c1cc([N+](=O)[O-])c(NCC2CCS(=O)(=O)C2)c([N+](=O)[O-])c1` (centres undefined): the DAPI activity (viability loss) was -2.33%.

As for `Cc1cc(-c2cccc3ccccc23)c(C)cn1.O=[N+]([O-])c1cc([N+](=O)[O-])c(O)c([N+](=O)[O-])c1`, the DAPI activity (viability loss) came to 5.09%.

For the molecule `O=[N+]([O-])c1ccc(O)c(/C=N/Nc2ccc([N+](=O)[O-])cc2[N+](=O)[O-])c1`, the DAPI activity (viability loss) is -3.51%.

As to `O=[N+]([O-])c1ncn(CCn2cnc([N+](=O)[O-])n2)n1`, the DAPI activity (viability loss) was 10.9%.

As for `O=C(OC1CN2CCC1CC2)c1cccc(Cl)c1` (centres undefined), the DAPI activity (viability loss) worked out at 10.6%.

In the case of `Cc1c(C(c2ccc3c(c2)OCO3)c2c(C)n(C)n(-c3ccccc3)c2=O)c(=O)n(-c2ccccc2)n1C.O=[N+]([O-])c1cc([N+](=O)[O-])c(O)c([N+](=O)[O-])c1`, the DAPI activity (viability loss) was found to be 9.94%.

For the molecule `Nc1ccc([As](=O)(O)c2ccc([N+](=O)[O-])cc2)cc1`, the DAPI activity (viability loss) was -2.12%.

For the molecule `O=P1(N(CCCl)CCCl)OCCCS1` (centres undefined), the DAPI activity (viability loss) amounted to 5.3%.

As for `O=[N+]([O-])c1ncn(CCn2ncnc2[N+](=O)[O-])n1`, the DAPI activity (viability loss) is -9.97%.

In the case of `CC(C)(C)C(=O)NC(Sc1ccncn1)C(Cl)(Cl)Cl` (centres undefined), the DAPI activity (viability loss) is -1.54%.

In the case of `O=[N+]([O-])c1cccc(NC2=NCC(CBr)S2)c1` (centres undefined), the DAPI activity (viability loss) was -0.978%.

On to `COC(=O)C1(C)COP(=O)(Nc2ccccc2)OC1` (centres undefined), for which the DAPI activity (viability loss) was -2.71%.

Consider `CCN(CC)CC(O)COC(=O)C(O)(c1ccccc1)C1CCCCC1` (centres undefined), for which the DAPI activity (viability loss) is 1.14%.

For the molecule `COc1ccc(C2=NCC(CBr)S2)cc1` (centres undefined), the DAPI activity (viability loss) was 1.49%.

In the case of `Cc1ccc(NP(=O)(Oc2ccccc2)Oc2ccccc2)nc1`, the DAPI activity (viability loss) was found to be 7.66%.

For `CP(=O)(Oc1ccccc1)N1CCOC1=O` (centres undefined), the DAPI activity (viability loss) turned out to be 4.52%.

For the molecule `O=[N+]([O-])c1cc([N+](=O)[O-])c(CCNc2ccccc2)c([N+](=O)[O-])c1`, the DAPI activity (viability loss) turned out to be 2.7%.

As to `CCc1ccc(OP(C)(=O)Nc2cccnc2)cc1` (centres undefined), the DAPI activity (viability loss) is -2.09%.

Regarding `COc1ccccc1OP(C)(=O)Nc1c(C)n(C)n(-c2ccccc2)c1=O` (centres undefined), the DAPI activity (viability loss) was -4.49%.

Take `O=[N+]([O-])c1cccc2n[nH]nc12`: the DAPI activity (viability loss) was -2.64%.

For the molecule `O=C(OCCCN1CCCC1)C(O)(c1ccccc1)C1CCCCC1` (centres undefined), the DAPI activity (viability loss) turned out to be 8.87%.

Take `CCN(/C(=N/P(=O)(N1CCOCC1)N1CCOCC1)N1CCOCC1)c1ccc(OC)cc1`: the DAPI activity (viability loss) was -6.32%.

`Nc1ccc([As](=O)(O)c2ccc(N)cc2)cc1`: the DAPI activity (viability loss) is -0.605%.

`COc1ccccc1OP(C)(=O)Nc1ccccc1Br` (centres undefined): the DAPI activity (viability loss) was -2.17%.

For `C[N+]1=C2C=CC=CC=C2SC12C([N+](=O)[O-])=CC([N+](=O)[O-])=C[C-]2[N+](=O)[O-]` (centres undefined), the DAPI activity (viability loss) was -52.5%.

As to `c1cc(-c2nn[nH]n2)ccc1-c1nn[nH]n1`, the DAPI activity (viability loss) amounted to 0.431%.

On to `CC1CCN(C(=O)Oc2c(Cl)cc(Cl)c3cccnc23)CC1`, for which the DAPI activity (viability loss) came out at 5.98%.

For `CN(C)C(=O)c1c([N+](=O)[O-])cc([N+](=O)[O-])cc1[N+](=O)[O-]`, the DAPI activity (viability loss) was -15%.

Turning to `CC(C)=N/N=C(\N)N[N+](=O)[O-]`, the DAPI activity (viability loss) was -1.97%.

Regarding `CC(C)c1nc(Nc2ccccc2)n(P(=O)(N(C)C)N(C)C)n1`, the DAPI activity (viability loss) was -2.23%.

`COc1ccccc1OP(C)(=O)Nc1ccc(Br)cc1` (centres undefined): the DAPI activity (viability loss) stood at 0.672%.

Turning to `CN(C(=O)Cc1ccc(Cl)c(Cl)c1)[C@H]1CCCC[C@H]1N1CCCC1`, the DAPI activity (viability loss) was determined as 0.265%.

As to `Cc1ccc(N/C(=N/P(=O)(N2CCOCC2)N2CCOCC2)N2CCOCC2)cc1`, the DAPI activity (viability loss) is -2.19%.

`NC(=O)c1cc([N+](=O)[O-])cc([N+](=O)[O-])c1N`: the DAPI activity (viability loss) is -12.6%.

Take `Clc1ccc(Cl)c(NC2=NCC(CBr)S2)c1` (centres undefined): the DAPI activity (viability loss) came out at 6.79%.

Consider `CN1CCCC(OC(=O)C(c2ccccc2)c2ccccc2)C1` (centres undefined), for which the DAPI activity (viability loss) worked out at 5.45%.

As to `COc1ccccc1OP(=O)(Nc1ccc(C)cn1)Oc1ccccc1OC`, the DAPI activity (viability loss) was -4.85%.

With `Cc1ccc(OP(=O)(Nc2nccs2)Oc2ccc(C)cc2)cc1`, the DAPI activity (viability loss) is -2.49%.

Consider `O=[N+]([O-])c1cc([N+](=O)[O-])c(Nc2ccccn2)c([N+](=O)[O-])c1`, for which the DAPI activity (viability loss) worked out at 11.4%.

In the case of `Cc1c(NP(C)(=O)Oc2ccc(C(C)C)cc2)c(=O)n(-c2ccccc2)n1C` (centres undefined), the DAPI activity (viability loss) turned out to be 8.57%.

On to `Nc1cc(N)c2nonc2c1[N+](=O)[O-]`, for which the DAPI activity (viability loss) came to 4.89%.

With `CCc1ccc(OP(C)(=O)O)cc1`, the DAPI activity (viability loss) came to 2.09%.

As for `CP(=O)(Nc1ccccn1)Oc1ccccc1` (centres undefined), the DAPI activity (viability loss) came out at 8.21%.

`COc1ccccc1OP(C)(=O)Nc1ccc(C)cc1C` (centres undefined): the DAPI activity (viability loss) is 14.9%.

In the case of `O=C1C(O)=C([N+](=O)[O-])C(=O)C(O)=C1[N+](=O)[O-]`, the DAPI activity (viability loss) worked out at 8.31%.

On to `Cc1cc(C)cc(OP(C)(=O)Nc2cccc(C(F)(F)F)c2)c1` (centres undefined), for which the DAPI activity (viability loss) is -5.64%.

On to `CN(C)P(=O)(N(C)C)n1c(Nc2ccccc2)nnc1-c1ccccc1`, for which the DAPI activity (viability loss) came out at 5.51%.

Take `O=P(Nc1nc2ccc(Cl)cc2s1)(c1ccccc1)c1ccccc1`: the DAPI activity (viability loss) was -2.4%.

`CCCC1OP(N)(=O)OCC1CC` (centres undefined): the DAPI activity (viability loss) was found to be 3.63%.

Regarding `Cc1ccc(NP(=O)(Oc2ccccc2F)Oc2ccccc2F)nc1`, the DAPI activity (viability loss) is -5.39%.

Take `CN(C(=O)Cc1ccc(Cl)c(Cl)c1)[C@H]1CCCC[C@@H]1N1CCCC1`: the DAPI activity (viability loss) was -7.3%.

As for `CP(=O)(OCCOc1ccccc1)OCCOc1ccccc1`, the DAPI activity (viability loss) was 11.4%.

With `CP(=O)(Nc1ccc(Cl)cc1Cl)Oc1ccccc1` (centres undefined), the DAPI activity (viability loss) is -14.2%.

Take `CCCCCCCCCCCCCCCC1C[N+](C)(C)CCOP(C)(=O)O1` (centres undefined): the DAPI activity (viability loss) worked out at 24.3%.
